# Experimental data published in the supplement of paper PMC8732350.
# Where “and” joins values, the source holds several entries; their conditions need not be identical. Equal entries are not always repeated. Structures can show the parent of a compound that is named as a salt. ± gives the standard deviation of the averaged measurements. This is one part of the list. Repeats in this data set agree poorly, so a single value says little.
# Test system: A549
# Assay: surface PD-L1 immunofluorescence intensity relative to IFN-gamma-only control (ratio); higher = more PD-L1 expression
# Details: 10 µM; exposure time 24 h; IFN-gamma 100 ng/mL
row,SMILES,surface PD-L1 immunofluorescence intensity
1,CN1[C@@H]2CC[C@H]1C[C@@H](OC(=O)c1cc(Cl)cc(Cl)c1)C2,1.08
2,O=C(O)c1nn(Cc2ccc(Cl)cc2Cl)c2ccccc12 [Lonidamine],0.971
3,O=c1[nH]oc2c1CCNC2 [THIP Hydrochloride],1.02
4,O=c1[nH]oc2c1CCNC2 [THIP hydrochloride],0.823
5,C[N+]1(C)CCc2cc3c(cc2[C@H]1[C@@H]1OC(=O)c2c1ccc1c2OCO1)OCO3 [(-)-Bicuculline methochloride],1.04
6,C[N+]1(C)CCc2cc3c(cc2[C@H]1[C@@H]1OC(=O)c2c1ccc1c2OCO1)OCO3 [(-)-Bicuculline methiodide],0.999
7,CN1CC[C@@H]2CN3CCc4cccc(c43)[C@@H]2C1 [SDZ SER 082 fumarate],1.05
8,O=c1cccc2n1C[C@@H]1CNC[C@H]2C1 [(-)-Cytisine],1.08
9,"O=c1cccc2n1C[C@@H]1CNC[C@H]2C1 [Cytisine (Baphitoxine, Sophorine)]",1.01
10,NCC1(CC(=O)O)CCCCC1 [Gabapentin],1.04
11,Fc1ccc(C(OCCN2CCN(C/C=C/c3ccccc3)CC2)c2ccc(F)cc2)cc1,1.05
12,C=C1CC[C@@]2(O)[C@H]3Cc4ccc(O)c5c4[C@@]2(CCN3CC2CC2)[C@H]1O5 [Nalmefene hydrochloride],1.07
13,O=[N+]([O-])O[C@H]1CO[C@H]2[C@@H]1OC[C@H]2O[N+](=O)[O-] [Isosorbide dinitrate],1.08
14,O=C(CCCN1CCC2(CC1)C(=O)NCN2c1ccccc1)c1ccc(F)cc1 [Spiperone],0.998
15,CC(N)C(O)c1ccccc1 (centres undefined) [Phenylpropanolamine hydrochloride],1.14
16,CCCCC1(C2CCCC2)Cc2cc(OCCCC(=O)O)c(Cl)c(Cl)c2C1=O (centres undefined),0.953
17,Cc1ncsc1CCCl [Chlormethiazole hydrochloride],1.02
18,CCOC(=O)c1cncn1[C@H](C)c1ccccc1 [Etomidate],1.09
19,CN1C2CCC1CC(OC(c1ccccc1)c1ccc(Cl)cc1)C2 (centres undefined),1.05
20,"CN1CCc2cc3c(cc2C1C1OC(=O)c2c1ccc1c2OCO1)OCO3 (single isomer, unassigned; (+)) [(+)-Bicuculline]",1.02 ± 0.11
21,CC(O)(CS(=O)(=O)c1ccc(F)cc1)C(=O)Nc1ccc(C#N)c(C(F)(F)F)c1 (centres undefined) [Bicalutamide],1.08
22,CCC1(C)CC(=O)NC(=O)C1 [Bemegride],1.02
23,CCCC(C)(COC(N)=O)COC(=O)NC(C)C (centres undefined) [Carisoprodol],1.03
24,C/C(O)=C(\C#N)C(=O)Nc1cc(Br)ccc1Br,0.919
25,Cc1ccccc1-n1c(Cn2ncc3c(N)ncnc32)nc2cccc(C)c2c1=O,0.933

row,SMILES,surface PD-L1 immunofluorescence intensity
1,Cc1ccc2c(c1)C1(CCN(CCc3nc(-c4ccccc4)oc3C)CC1)OC(=O)N2,1.04
2,N[C@@H]1C[C@H]1c1ccccc1.N[C@H]1C[C@@H]1c1ccccc1 [Tranylcypromine hemisulfate],1.1
3,C[C@]12CCC(=O)C=C1CC[C@@H]1[C@@H]2CC[C@]2(C)C(=O)CC[C@@H]12 [Androstenedione],1.01
4,OC(c1ccccc1)(c1ccccc1)C1CCNCC1 [Azacyclonol],0.993
5,COc1cc(N)c(Cl)cc1C(=O)NC1CN2CCC1CC2 (centres undefined) [Zacopride hydrochloride],0.951
6,N=C(NCc1ccc(Cl)cc1)SCCCc1c[nH]cn1 [Clobenpropit dihydrobromide],1.11
7,COc1cc(OC)c(OC)cc1C=O [Asaraldehyde (Asaronaldehyde)],0.867
8,C[N+]1(C)CCCC(OC(=O)C(O)(c2ccccc2)c2ccccc2)C1 (centres undefined) [Mepenzolate bromide],1.02
9,C[C@@H]1CN([C@H]2CC[C@](C#N)(c3ccc(F)cc3)CC2)CC[C@]1(C(=O)O)c1ccccc1 [Levocabastine hydrochloride],1.02
10,C(=C\c1ccccc1)/CN1CCN(CCOC(c2ccccc2)c2ccccc2)CC1,1.06
11,c1ccc2sc(C3(N4CCCCC4)CCCCC3)cc2c1 [BTCP maleate],1.09
12,C=CCC1(CC(C)C)C(=O)NC(=O)NC1=O [Butalbital],0.977
13,O=C1C2CCN(CC2)C1(CO)CO,0.96
14,"C=CCN1CC[C@]2(C)c3cc(O)ccc3C[C@H]1C2C (single isomer, unassigned; (+))",1.03
15,CCC(=O)O[C@H]1CC[C@H]2[C@@H]3CCC4=CC(=O)CC[C@]4(C)[C@H]3CC[C@]12C [Testosterone propionate],1.04
16,COc1ccc(OC)c(C(O)C(C)N)c1 (centres undefined) [Methoxamine hydrochloride],0.954
17,Ic1cncc(OC[C@@H]2CCN2)c1,1.02
18,CCOc1cncc(/C=C/CCNC)c1 [TC 2559 difumarate],0.968
19,CCOC(=O)c1ncn2c1CN(C)C(=O)c1cc(N=[N+]=[N-])ccc1-2,1.01
20,CCCN1CCO[C@@H]2c3cc(O)ccc3OC[C@H]21,1.06 and 1.05
21,CN1C(=O)CCS(=O)(=O)C1c1ccc(Cl)cc1 (centres undefined) [Chlormezanone],1.01 ± 0.065
22,O=P1(N(CCCl)CCCl)NCCCO1 (centres undefined) [Cyclophosphamide],1.1
23,CCCN[C@@H]1CCc2c(OC)cccc2[C@@H]1C [(+)-AJ 76 hydrochloride],1.03
24,Cn1c2c(c3ccccc31)CCNCC2,0.972
25,C=C1C[C@@H]2[C@H](CC[C@]3(C)C(=O)CC[C@@H]23)[C@@]2(C)C=CC(=O)C=C12 [Exemestane],1.06 ± 0.1

row,SMILES,surface PD-L1 immunofluorescence intensity
1,CC(=O)[C@H]1CC[C@H]2[C@@H]3CC[C@H]4C[C@H](O)CC[C@]4(C)[C@H]3C(=O)C[C@]12C [Alfaxalone],0.901
2,CC1=NN=C(c2ccc(N)cc2)c2cc3c(cc2C1)OCO3,1.05
3,C[C@H]1CNCCc2ccc(Cl)cc21 [Lorcaserin HCl],0.986
4,O=C(O)CCC(CP(=O)(O)O)C(=O)O (centres undefined) [PMPA (NAALADase inhibitor)],0.964
5,CN(C)C(=O)Oc1cccc([N+](C)(C)C)c1 [Neostigmine bromide],1.03
6,Cc1onc(O)c1C[C@H](N)C(=O)O,1.15
7,CN1[C@@H]2CC[C@H]1CC(OC(=O)N1Cc3ccccc3NC1=O)C2 (some centres undefined) [DAU 5884 hydrochloride],1
8,COc1ccc(C(CN(C)C)C2(O)CCCCC2)cc1 (centres undefined) [Venlafaxine],1.08
9,CCc1c(C(=O)C(N)=O)c2c(OCC(=O)O)cccc2n1Cc1ccccc1,1.13
10,"CC(=O)[C@H]1CC[C@H]2[C@@H]3CC[C@@H]4CC(=O)CC[C@]4(C)[C@H]3CC[C@]12C [5b-Pregnan-3,20-dione]",1
11,CCNCC(O)c1cccc(O)c1 (centres undefined) [Etilefrine hydrochloride],0.956
12,Clc1cccc(SC2CCNCC2)n1 [Anpirtoline hydrochloride],1.09
13,CCOC(=O)c1ncc2[nH]c3ccc(OCc4ccccc4)cc3c2c1COC,1.03
14,NP(N)(=O)NC(=O)c1ccc(F)cc1 [Flurofamide],0.969
15,CC(C)(N)Cc1ccccc1 [Phentermine hydrochloride],0.953
16,CN1[C@@H]2CC[C@H]1C[C@@H](OC(=O)C(CO)c1ccccc1)C2 (some centres undefined) [Atropine sulfate monohydrate],0.996
17,CN1[C@@H]2CC[C@H]1C[C@@H](OC(=O)C(CO)c1ccccc1)C2 (some centres undefined) [Atropine],1.08
18,CC(C)C[C@H]1C(=O)N2CCC[C@H]2[C@]2(O)O[C@](NC(=O)[C@@H]3C=C4c5cccc6[nH]c(Br)c(c56)C[C@H]4N(C)C3)(C(C)C)C(=O)N12 [Bromocryptine mesylate],0.931
19,CC(C)C[C@H]1C(=O)N2CCC[C@H]2[C@]2(O)O[C@](NC(=O)[C@@H]3C=C4c5cccc6[nH]c(Br)c(c56)C[C@H]4N(C)C3)(C(C)C)C(=O)N12 [Bromocriptine mesylate],0.962
20,c1ccc(CCCN2CCN(CCOC(c3ccccc3)c3ccccc3)CC2)cc1,1.07
21,CCC1=C[C@H]2CN3CCc4c([nH]c5ccccc45)[C@](C(=O)OC)(C2)[C@H]13 [Catharanthine],0.936
22,C#CCOC(=O)C1=CCCN(C)C1 [Arecaidine propargyl ester tosylate],0.981
23,O=C(Cc1ccc(Cl)c(Cl)c1)N1CCCCC1CN1CCCC1 (centres undefined),1.11
24,CC(C)NCC(O)c1ccc(N)c(C#N)c1 (centres undefined) [Cimaterol],1.07
25,C=C(C)CN1CC[C@@]23c4c5ccc(O)c4O[C@H]2c2[nH]c4ccccc4c2C[C@]3(O)C1C5 [SDM25N hydrochloride],1.02

row,SMILES,surface PD-L1 immunofluorescence intensity
1,CNC(C)(C)Cc1ccccc1 [Mephentermine hemisulfate],1.07
2,C[C@]12CCC(=O)C(O)=C1CC[C@@H]1[C@@H]2CC[C@]2(C)C(=O)CC[C@@H]12 [Formestane],1 ± 0.015
3,c1ccc(C2CC2)c(OCC2=NCCN2)c1 [Cirazoline hydrochloride],0.974
4,"Clc1ccc(N2CCN(Cc3c[nH]c4ncccc34)CC2)cc1 [L-745,870 trihydrochloride]",1.09
5,CN1CCN(c2ccc3ccccc3n2)CC1 [N-Methylquipazine dimaleate],1
6,CC1OC(OC2/C=C/C=C/C=C/C=C/CC/C=C/C=C/[C@H](C)[C@@H](O)[C@@H](C)[C@H](C)OC(=O)CC(O)CC(O)CC(O)CCC(O)C(O)C[C@]3(O)CC(O)C(C(=O)O)C(C2)O3)C(O)C(N)C1O (some centres undefined) [Nystatine],1.08
7,NCCCNCCSP(=O)(O)O [Amifostine],1
8,CCN(CC)C(=O)c1ccc(C2=CC3(CCNCC3)Oc3cccc(O)c32)cc1,1.1
9,NCCc1c[nH]c2ccc(C(N)=O)cc12 [5-Carboxamidotryptamine maleate],1.03
10,CC1(C)[C@@H](O)C[C@H]2[C@](C)(O)[C@@H]3CC[C@@H]4[C@@H](O)[C@@]3(C[C@@H](O)[C@@]21O)C[C@@]4(C)O [Grayanotoxin III],0.897
11,O=C(O)/C=C/CO [trans-4-Hydroxycrotonic acid],1.02
12,Cc1cc2c(C(C)C)c(O)c(O)c(C=O)c2c(O)c1-c1c(C)cc2c(C(C)C)c(O)c(O)c(C=O)c2c1O [Gossypol],1.02 ± 0.13
13,CC(C)(OO)c1ccccc1 [Cumene hydroperoxide],0.987
14,O=c1[nH]c2ccccc2n1C1CCN(CCCC(c2ccc(F)cc2)c2ccc(F)cc2)CC1 [Pimozide],1.04 ± 0.049
15,FC(F)(F)c1cccc(C2=CCN(CCc3ccc4ccccc4c3)CC2)c1 [Xaliproden hydrochloride],1.03
16,O=c1ccc2[nH]cc(C3=CCNCC3)c2[nH]1,1.13
17,CC(=O)NCCc1c[nH]c2ccccc12 [N-Acetyltryptamine],1.09
18,CC1=C2C[C@H]3[C@@H](CC=C4C[C@@H](O)CC[C@@]43C)[C@@H]2CC[C@]12O[C@@H]1C[C@H](C)CN[C@H]1[C@H]2C [Cyclopamine],1.01
19,C[C@]12CC[C@@H](O)C[C@H]1CC[C@@H]1[C@@H]2CC[C@]2(C)C(=O)CC[C@@H]12 [3-alpha-Hydroxy-5-beta-androstan-17-one],1.03
20,N[C@H](C(=O)O)c1cc(O)no1 [Ibotenic acid],0.973
21,CCN1CC2(OC(=O)c3ccccc3NC(C)=O)CCC(OC)C34C1C(CC23)C1(O)CC(OC)C2CC4C1(O)C2OC (centres undefined) [Lappaconite HBr],1.08
22,CN(C)C(=O)Oc1ccc[n+](C)c1 [Pyridostigmine iodide],0.935
23,C#CCN(C)[C@H](C)Cc1ccccc1 [Selegiline hydrochloride],0.955
24,CN1CCN(c2nc3ccccc3nc2Cl)CC1,0.967
